Assay results taken from PubChem BioAssay AID2685 (National Center for Advancing Translational Sciences (NCATS), 2010).
This is one part of the list. These are further read-outs of the screen, such as a control signal, another cell line or another target. No call is given for them. Compounds called inactive in the main read-out are mostly missing here. Words in brackets tell the shape of the fitted curve; partial curves, single points and poor fits give uncertain potencies.

Assay: qHTS Assay for Lipid Storage Modulators in Drosophila S3 Cells;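 for cell number change: cells counted by Cell Tracker Red CMTPX staining in the red channel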
Details: BODIPY lipid droplet fluorescence, 18-24 h; for cell number change: measured here: cell count max response, cells fed with added oleic acid
Outline: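 Laser-scanning cytometry quantifies lipid droplet accumulation (500–530 nm total intensity; droplet/cell object ratio) in oleic acid-fed (400 uM added) Drosophila S3 cells treated with a concentration series. 20 uM Triacsin C defined 100% inhibition.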

[1] = measured here: cell number channel AC50, cells fed with added oleic acid
[2] = measured here: lipid fluorescence (Fed channel) AC50, cells fed with added oleic acid

SMILES | cell number change [%] | AC50 [1] | AC50 [2]
Cc1ccc(CS(=O)(=O)CCC(=O)NCC2CCCO2)cc1 (stereo not given) | -119 | 29.1 µM [falling, single point] | 29.1 µM [falling, partial curve]
CC1CN(C(=O)CSc2nc(N)cc(N)n2)CC(C)O1 (stereo not given) | -9.94 | – | 0.103 µM [falling, full curve, poor fit]
O=C(NC1CCCC1)C1CCCN(C(=O)Nc2ccccc2)C1 (stereo not given) | 20 | – | 0.00461 µM [rising, full curve, poor fit]
CC(C)(C)c1csc(NC(=O)c2ccc3nccnc3c2)n1 | 4.44 | – | –
Cc1ccc(NC(=O)CCN2C(=O)c3ccccc3Sc3ncccc32)cc1 | 59.3 | 29.1 µM [rising, single point] | 29.1 µM [rising, single point]
CCOC(=O)[C@H]1[C@H]2COc3ccc(OC)cc3[C@@H]2N2C(=O)[C@H](C)NC(=O)[C@@]12C | -1.81 | – | 5.17 µM [falling, single point]
Cc1cc(C)n(-c2nc3ccccc3c(=O)n2OCC(=O)Nc2c(C)cccc2C)n1 | 19.4 | – | 2.06 µM [rising, partial curve]
O=C(NCCCn1ccnc1)c1ccc(C(F)(F)F)cc1 | 14.2 | – | –
CC1CCN(Cc2csc(N)n2)CC1 | -24.5 | 7.31 µM [falling, partial curve, poor fit] | 0.13 µM [falling, full curve, poor fit]
CC(C)(C)C(=O)NC(=S)Nc1ccc(Cl)c(C(=O)O)c1 | 15.7 | – | 6.51 µM [falling, partial curve, poor fit]
COc1cc(NC(=O)C2CCC(CNc3c(N4CCC(C)CC4)c(=O)c3=O)CC2)cc(OC)c1 (stereo not given) | 5.46 | – | 25.9 µM [rising, single point]
O=C(NCc1cn(-c2ccccc2)nc1-c1ccccc1)c1cccc([N+](=O)[O-])c1 | 39.2 | 4.11 µM [rising, full curve] | 29.1 µM [falling, single point]
O=C(O)/C=C/C(=O)Nc1ccccc1SC(F)(F)C(F)(F)C(F)(F)F | -116 | 29.1 µM [falling, partial curve, poor fit] | 29.1 µM [falling, partial curve]
O=C(OCC(=O)N(C1CCCCC1)C1CCCCC1)c1ccc(Cl)nc1 | 11.1 | – | 29.1 µM [rising, single point]
CNC(=S)SCCOc1ccccc1 | 6.4 | – | 0.82 µM [rising, single point]
CCOC(=O)c1sc2nc(CC(=O)OC)nc(NCc3ccc(Cl)cc3)c2c1C | 24.1 | 1.84 µM [rising, partial curve] | 2.06 µM [rising, partial curve]
Cc1cc(=O)[nH]c(SCC(=O)OCc2ccccc2)c1C#N | 13.8 | – | 1.64 µM [falling, partial curve]
CCOC(=O)N1CCN(CC(O)COCc2cc(OC)c(OC)c(OC)c2)CC1 (stereo not given) | -36.8 | 0.517 µM [rising, full curve] | –
N#CC(=C1CCCC1)c1nc(-c2cc3ccccc3oc2=O)cs1 | 19 | – | 0.92 µM [rising, full curve]

SMILES | cell number change [%] | AC50 [1] | AC50 [2]
CC/C(=N\NC(=O)c1c(C)nc2ccccn12)c1ccccc1 | -0.451 | – | 0.58 µM [rising, single point]
CN1CCN(C(c2ccc(Cl)cc2)c2cc(Cl)c3cccnc3c2O)CC1 (stereo not given) | 26.5 | – | 29.1 µM [rising, single point]
Clc1ccc(CN=C2Nc3ccccc3CS2)cc1 | -26 | – | –
CC(C)C(=O)Nc1ccc(C(=O)NNC(=O)c2ccco2)cc1 | -12.4 | 0.00411 µM [falling, full curve, poor fit] | –
Oc1sc(C=Nc2ccc(F)cc2)c2ccccc12 | – | 6.51 µM [rising, single point] | –
CC(=O)N1c2ccccc2NC(=O)C1(C)C | -28.9 | 2.06 µM [falling, full curve, poor fit] | –
O=C(CN1CCc2ccccc21)NC(=O)NCc1ccco1 | – | – | 29.1 µM [falling, single point]
O=[N+]([O-])c1c(NCCCO)cc(Sc2ccc(Cl)cc2)c2nonc12 | -48.5 | 3.66 µM [falling, full curve] | 4.11 µM [falling, full curve]
CCOC(=O)c1nc(S(C)(=O)=O)ncc1N1CCOCC1 | 7.9 | – | 5.17 µM [falling, partial curve, poor fit]
COCCn1c(Cc2ccccc2)nnc1SCC(=O)NC1CCCCC1 | 15.2 | – | 29.1 µM [rising, single point]
Cc1ccc(NC(=O)CSc2nnc(Cc3ccccc3)o2)cc1 | 18.1 | – | –
COc1ccc(-c2noc(CCC(=O)NC3CCCCCC3)n2)cc1 | 83.9 | 16.4 µM [rising, partial curve] | 11.6 µM [rising, single point]
C=CCNS(=O)(=O)c1ccc2nsnc2c1 | – | 0.731 µM [rising, single point] | –
Cc1ccc(S(=O)(=O)N2CCCCC2CCNC(=O)C(=O)NCC2CCCO2)cc1 (stereo not given) | -3.95 | – | –
CCOC(=O)C1(Cc2ccccc2)CCCN(CCCn2cccn2)C1 (stereo not given) | 23.9 | – | –
O=C(Nc1ccc(O)c2c(=O)cc(-c3cccc(Cl)c3)oc12)c1cccc(Cl)c1 | -5.83 | – | 0.0326 µM [rising, full curve, poor fit]
CCOc1ncccc1C(=O)OCc1c(F)cccc1Cl | – | – | 6.51 µM [falling, single point]
O=C(c1cccc(S(=O)(=O)N2CCCC2)c1)c1cccc(S(=O)(=O)N2CCCC2)c1 | -37.5 | 0.731 µM [falling, partial curve] | –
C/C(N)=C(/C#N)C(=O)COC(=O)CNS(=O)(=O)c1ccc(F)c(F)c1F | 23.5 | 0.146 µM [rising, full curve, poor fit] | 0.146 µM [rising, full curve, poor fit]

Entries of single compounds, quoted from the list. Values in the order: cell number change [%] | AC50 [1] | AC50 [2]
`Oc1sc(C=Nc2ccc(F)cc2)c2ccccc12` is listed with – | 6.51 µM [rising, single point] | –
`COCCn1c(Cc2ccccc2)nnc1SCC(=O)NC1CCCCC1` is listed with 15.2 | – | 29.1 µM [rising, single point]
